Experimental data reported in paper PMC10551642, “Functional plasticity in chromosome–microtubule coupling on the evolutionary time scale” (Life Science Alliance, 2023).
No constants are given. Whether binding was seen depends on the method and setting. Some entries that bind do so weakly or less than the wild type. For some of these results: Where a sequence is shown, tags or fusion partners need not be part of it.

T1: S. cerevisiae Dad1 with C-terminal His6 tag (S. cerevisiae) (UniProt Q12248)
T1 sequence: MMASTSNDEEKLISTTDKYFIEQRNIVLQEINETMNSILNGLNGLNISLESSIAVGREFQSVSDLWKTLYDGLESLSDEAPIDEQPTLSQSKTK


Key:
[1] = biological target: S. cerevisiae Dam1 complex containing Dad2-R126A (DASH^R126A) (S. cerevisiae) (UniProt Q12248); assay: negative stain electron microscopy; Dam1 complex-MT reaction mix adsorbed on glow-discharged grids, washed with 25 mM HEPES pH 7.4, 500 mM NaCl, 1 mM EDTA, stained with 0.7% uranyl formate; rings of the complex around MTs; both purified
[2] = biological target: T1, S. cerevisiae Dad1 with C-terminal His6 tag (S. cerevisiae); assay: co-purification (Ni-NTA, ion exchange, gel filtration) with SDS-PAGE of the fractions; 10 subunits with WT Dad2 co-expressed in E. coli; captured by Dad1-His6 on Ni-NTA agarose; HiTRAP Q HP; Superose 6 10/300 GL in 25 mM HEPES pH 7.4, 500 mM NaCl, 1 mM EDTA; 4-12% gradient gel
[3] = biological target: T1, S. cerevisiae Dad1 with C-terminal His6 tag (S. cerevisiae); assay: co-purification (Ni-NTA, ion exchange, gel filtration) with SDS-PAGE of the fractions; as a1, but Dad2-R126A co-expressed instead of WT Dad2; fractions a and b of the gel filtration analysed
[4] = biological target: T1, S. cerevisiae Dad1 with C-terminal His6 tag (S. cerevisiae); assay: co-purification (Ni-NTA, ion exchange, gel filtration) with SDS-PAGE of the fractions; as a1, but Dad2-ΔDSS co-expressed instead of WT Dad2; fractions c and d of the gel filtration analysed

| binding [1] | binding [2] | binding [3] | binding [4] | Molecule |
| --- | --- | --- | --- | --- |
|  | binds |  |  | S. cerevisiae Spc34 (protein, UniProt P36131 1-295) MGESLDRCIDDINRAVDSMSTLYFKPPGIFHNAILQGASNKASIRKDITRLIKDCNHDEAYLLFKVNPEKQSVSRRDGKEGVFDYVIKRDTDMKRNRRLGRPGEKPIIHVPKEVYLNKDRLDLNNKRRRTATTSGGGLNGFIFDTDLIGSSVISNSSSGTFKALSAVFKDDPQIQRLLYALENGSVLMEEESNNQRRKTIFVEDFPTDLILKVMAEVTDLWPLTEFKQDYDQLYHNYEQLSSKLRFIKKEVLLQDDRLKTMSQYHPSSSHDVAKIIRKEKDEIRRLEMEIANLQE |
|  | binds |  |  | S. cerevisiae Hsk3 (protein, UniProt P69852 1-69) MNANKQRQYNQLAHELRELQTNLQETTKQLDIMSKQCNENLVGQLGKVHGSWLIGSYIYYMEQMLGKTQ |
|  | binds |  | binds | S. cerevisiae Spc19 (protein, UniProt Q03954 1-165) MTDALEQSVLALEGTVSVLKDSVESLKCANEPSTNLASTMLQTKRVFRLVPEYDVERSKLDLIEEVEPLVRTLGDKLRKSMGRMQRELDTLQQTYELNDLRLKKNISMDDDDALNSPDMGQEYEGRDADDVVMMASSTNEELEELKKLKEKKKQLENKLEILKQK |

The remaining lines, values behind:

| Molecule | binding [1] | binding [2] | binding [3] | binding [4] |
| --- | --- | --- | --- | --- |
| S. cerevisiae Dam1 complex containing Dad2-R126A (DASH^R126A) (from UniProt Q12248 1-94; P36162 1-133; P69850 1-94; P69851 1-72; P53267 1-343; P53168 1-247; P35734 1-292; P69852 1-69; P36131 1-295) | no binding |  |  |  |
| S. cerevisiae Ask1 (protein, UniProt P35734 1-292) MDSASKEETLEKLDQEITVNLQKIDSNLSFCFHKITQDIIPHVATYSEICERIMDSTEWLGTMFQETGLVNLQANAAAPVGNAPVKSLVSNNVGIFPTSAEEASRQSQTDNGPNEADSAVHVNRDVHSMFNNDSIDDFHTANITSTGQILKLPDSSDEDTGSEAVPSREQTDLTGEGHGGADDEQDESTIQRQSRKRKISLLLQQQYGSSSSMVPSPIVPNKMRKQLAHEEHINNDGDNDDENSNNIESSPLKQGHHHPKGQADDNNEGPDEEESTKEVPKPGTIIHFSTNR |  | binds |  |  |
| S. cerevisiae Dad2 (Dad2-FL) (protein, UniProt P36162 1-133) MDSIDEQIAIKRKELQSLQKITSLTDGLKIQLTELNEQIKEMGMNADSVAQLMNNWDSIINNISQASLGLLQYAEGDYEIGPWKDSKKKESEQSNETGLEAQENDKNDEDNDEDEDLVPLPETMVRIRVDGNE |  | binds |  |  |
| S. cerevisiae Dad2-R126A (protein, UniProt P36162 1-133) MDSIDEQIAIKRKELQSLQKITSLTDGLKIQLTELNEQIKEMGMNADSVAQLMNNWDSIINNISQASLGLLQYAEGDYEIGPWKDSKKKESEQSNETGLEAQENDKNDEDNDEDEDLVPLPETMVAIRVDGNE |  |  | binds |  |
| S. cerevisiae Dam1 (protein, UniProt P53267 1-343) MSEDKAKLGTTRSATEYRLSIGSAPTSRRSSMGESSSLMKFADQEGLTSSVGEYNENTIQQLLLPKIRELSDSIITLDSNFTRLNFIHESLADLNESLGSLLYGIMSNSWCVEFSQAPHDIQDDLIAIKQLKSLEDEKNNLVMELSNMERGIKRKKDEQGENDLAKASQNKQFNQPLFPSSQVRKYRSYDNRDKRKPSKIGNNLQVENEEDYEDDTSSEASFVLNPTNIGMSKSSQGHVTKTTRLNNNTNSKLRRKSILHTIRNSIASGADLPIENDNVVNLGDLHPNNRISLGSGAARVVNGPVTKNRNSMFSGRAERKPTESRHSVAKKTEKKINTRPPFR |  | binds | binds | binds |
| S. cerevisiae Duo1 (protein, UniProt P53168 1-247) MSEQSQLDDSTIDKLIPQIFNEMRSNLNNTTNKFPKSTGGGASDNISANSNSIRSFNSITTQSLLKESESLDKITAMIKNVTAALKNNLPVYVNQVHEVCKSTNSILDSWINIHSQAGYIHKLMSDQTYLKLINDRLHNENVNTNDEDGSTLHNVIALKKKEILDLRQKLENRKGEKDAAPAKPPNQGLNPRYGVQSGRRPVPSAGISNNGRVRKTHVPASKRPSGIPRVTNRWTKPTASSSRKMFR |  | binds | binds | binds |
| S. cerevisiae Dad4 (protein, UniProt P69851 1-72) MENPHEQVQANILSRIIGNVKRLNESVAILNQELVTINNRNKNLEIMGAICDNYHSSVQFNLEATNNKKPPL |  | binds |  |  |
| S. cerevisiae Dad3 (protein, UniProt P69850 1-94) MEHNLSPLQQEVLDKYKQLSLDLKALDETIKELNYSQHRQQHSQQETVSPDEILQEMRDIEVKIGLVGTLLKGSVYSLILQRKQEQESLGSNSK |  | binds |  |  |
